Some of the results follow. The data scatter; read single values as rough.
How the values were obtained:
[1] = compound: ClCC(=O)N[C@@H]1CCCc2ccccc12; assay: log2 mean competition ratio of IA-DTB cysteine labelling (DMSO/compound) (log2 ratio); higher = stronger cysteine engagement by compound; settings: treatment time: 4 h, cell line lysate: HEK293T
Experimental: (§1)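 IA-DTB competitive cysteine chemoproteomics in HEK293T RIPA lysate. Lysates were treated with compound 29 or 30 at 50 or 200 µM for 4 h, then IA-DTB (500 µM, 1 h), trypsin-digested, NeutrAvidin-enriched and analysed by diaPASEF. Competition ratio = intensity DMSO / intensity compound (n=4 treated, n=64 DMSO); binding: mean log2 CR ≥ 1 and p ≤ 0.05 plus QC filters. Target is the cysteine site.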

Amino acid sequences for entries named in this document (tags omitted). A change or cut given only in a name is not applied to a line headed by its entry. Residues count along the entry.
UniProt Q9BYG5: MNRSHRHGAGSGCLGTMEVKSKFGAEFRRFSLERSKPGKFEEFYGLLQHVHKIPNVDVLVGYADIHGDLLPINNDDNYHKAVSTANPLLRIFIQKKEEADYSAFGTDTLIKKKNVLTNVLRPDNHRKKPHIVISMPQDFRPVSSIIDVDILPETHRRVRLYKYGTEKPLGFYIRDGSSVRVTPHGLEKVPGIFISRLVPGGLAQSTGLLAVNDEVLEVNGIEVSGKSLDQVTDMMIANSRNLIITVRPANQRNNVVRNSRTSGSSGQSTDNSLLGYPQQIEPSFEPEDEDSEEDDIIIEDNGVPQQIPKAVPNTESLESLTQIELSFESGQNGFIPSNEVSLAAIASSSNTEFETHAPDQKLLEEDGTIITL
UniProt P12004, 118-138: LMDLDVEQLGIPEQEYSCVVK
UniProt P09874: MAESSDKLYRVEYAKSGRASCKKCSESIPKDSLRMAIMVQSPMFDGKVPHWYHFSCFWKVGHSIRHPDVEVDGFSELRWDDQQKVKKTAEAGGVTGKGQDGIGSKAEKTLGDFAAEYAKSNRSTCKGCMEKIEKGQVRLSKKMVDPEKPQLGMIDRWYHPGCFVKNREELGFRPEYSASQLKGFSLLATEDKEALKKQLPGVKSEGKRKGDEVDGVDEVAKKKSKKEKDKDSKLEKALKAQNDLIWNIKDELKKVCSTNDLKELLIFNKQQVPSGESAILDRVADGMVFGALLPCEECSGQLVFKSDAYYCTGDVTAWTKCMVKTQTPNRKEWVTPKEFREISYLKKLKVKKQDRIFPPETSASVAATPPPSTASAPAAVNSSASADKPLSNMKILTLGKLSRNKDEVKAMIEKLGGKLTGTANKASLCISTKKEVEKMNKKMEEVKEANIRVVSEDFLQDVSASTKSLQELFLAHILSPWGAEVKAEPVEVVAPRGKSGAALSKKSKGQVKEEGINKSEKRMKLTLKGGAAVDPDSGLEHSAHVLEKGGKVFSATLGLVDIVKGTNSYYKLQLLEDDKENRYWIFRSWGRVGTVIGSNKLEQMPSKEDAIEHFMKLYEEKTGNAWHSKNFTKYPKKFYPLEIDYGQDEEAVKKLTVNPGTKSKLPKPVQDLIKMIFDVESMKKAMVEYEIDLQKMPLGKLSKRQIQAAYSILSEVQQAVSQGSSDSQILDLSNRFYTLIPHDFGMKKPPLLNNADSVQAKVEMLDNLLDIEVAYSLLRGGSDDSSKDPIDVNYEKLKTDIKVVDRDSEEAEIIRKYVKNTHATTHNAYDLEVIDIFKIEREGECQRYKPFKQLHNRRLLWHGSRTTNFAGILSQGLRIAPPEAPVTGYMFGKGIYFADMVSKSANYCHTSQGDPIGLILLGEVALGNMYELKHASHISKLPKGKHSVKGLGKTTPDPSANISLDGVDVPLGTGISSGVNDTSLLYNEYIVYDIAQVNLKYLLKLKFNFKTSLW
UniProt P30039: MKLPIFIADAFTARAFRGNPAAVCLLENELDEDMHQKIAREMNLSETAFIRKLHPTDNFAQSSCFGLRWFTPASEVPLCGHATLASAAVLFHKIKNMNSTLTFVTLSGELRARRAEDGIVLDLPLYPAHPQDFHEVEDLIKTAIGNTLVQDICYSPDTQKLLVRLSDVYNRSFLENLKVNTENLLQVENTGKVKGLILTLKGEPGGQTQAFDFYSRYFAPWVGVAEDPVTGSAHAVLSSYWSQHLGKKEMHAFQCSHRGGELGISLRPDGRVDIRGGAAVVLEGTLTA
UniProt Q8WUM4, 518-541: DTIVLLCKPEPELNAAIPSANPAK
UniProt Q9Y5B6: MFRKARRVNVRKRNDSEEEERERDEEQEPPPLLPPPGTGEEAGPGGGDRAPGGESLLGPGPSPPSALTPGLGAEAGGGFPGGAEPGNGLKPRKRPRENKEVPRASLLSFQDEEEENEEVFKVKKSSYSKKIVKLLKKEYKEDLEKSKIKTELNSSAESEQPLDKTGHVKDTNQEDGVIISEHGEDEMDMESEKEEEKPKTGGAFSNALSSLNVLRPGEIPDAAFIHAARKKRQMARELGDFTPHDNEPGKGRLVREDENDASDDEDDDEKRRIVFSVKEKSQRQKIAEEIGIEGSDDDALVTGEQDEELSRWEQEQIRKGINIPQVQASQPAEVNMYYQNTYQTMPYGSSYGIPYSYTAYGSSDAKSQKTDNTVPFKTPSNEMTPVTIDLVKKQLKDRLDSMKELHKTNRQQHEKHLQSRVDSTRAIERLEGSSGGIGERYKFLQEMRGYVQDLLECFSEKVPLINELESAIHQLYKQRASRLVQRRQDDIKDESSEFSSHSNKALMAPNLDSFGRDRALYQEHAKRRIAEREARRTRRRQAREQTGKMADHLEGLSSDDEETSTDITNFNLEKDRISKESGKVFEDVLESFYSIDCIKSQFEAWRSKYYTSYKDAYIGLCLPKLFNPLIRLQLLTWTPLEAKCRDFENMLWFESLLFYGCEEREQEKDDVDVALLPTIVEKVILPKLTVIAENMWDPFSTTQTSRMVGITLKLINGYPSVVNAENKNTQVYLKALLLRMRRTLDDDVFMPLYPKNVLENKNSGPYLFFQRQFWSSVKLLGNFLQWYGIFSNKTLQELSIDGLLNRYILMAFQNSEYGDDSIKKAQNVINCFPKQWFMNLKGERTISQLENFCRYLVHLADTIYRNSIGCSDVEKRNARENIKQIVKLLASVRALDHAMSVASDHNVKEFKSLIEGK
UniProt O15067: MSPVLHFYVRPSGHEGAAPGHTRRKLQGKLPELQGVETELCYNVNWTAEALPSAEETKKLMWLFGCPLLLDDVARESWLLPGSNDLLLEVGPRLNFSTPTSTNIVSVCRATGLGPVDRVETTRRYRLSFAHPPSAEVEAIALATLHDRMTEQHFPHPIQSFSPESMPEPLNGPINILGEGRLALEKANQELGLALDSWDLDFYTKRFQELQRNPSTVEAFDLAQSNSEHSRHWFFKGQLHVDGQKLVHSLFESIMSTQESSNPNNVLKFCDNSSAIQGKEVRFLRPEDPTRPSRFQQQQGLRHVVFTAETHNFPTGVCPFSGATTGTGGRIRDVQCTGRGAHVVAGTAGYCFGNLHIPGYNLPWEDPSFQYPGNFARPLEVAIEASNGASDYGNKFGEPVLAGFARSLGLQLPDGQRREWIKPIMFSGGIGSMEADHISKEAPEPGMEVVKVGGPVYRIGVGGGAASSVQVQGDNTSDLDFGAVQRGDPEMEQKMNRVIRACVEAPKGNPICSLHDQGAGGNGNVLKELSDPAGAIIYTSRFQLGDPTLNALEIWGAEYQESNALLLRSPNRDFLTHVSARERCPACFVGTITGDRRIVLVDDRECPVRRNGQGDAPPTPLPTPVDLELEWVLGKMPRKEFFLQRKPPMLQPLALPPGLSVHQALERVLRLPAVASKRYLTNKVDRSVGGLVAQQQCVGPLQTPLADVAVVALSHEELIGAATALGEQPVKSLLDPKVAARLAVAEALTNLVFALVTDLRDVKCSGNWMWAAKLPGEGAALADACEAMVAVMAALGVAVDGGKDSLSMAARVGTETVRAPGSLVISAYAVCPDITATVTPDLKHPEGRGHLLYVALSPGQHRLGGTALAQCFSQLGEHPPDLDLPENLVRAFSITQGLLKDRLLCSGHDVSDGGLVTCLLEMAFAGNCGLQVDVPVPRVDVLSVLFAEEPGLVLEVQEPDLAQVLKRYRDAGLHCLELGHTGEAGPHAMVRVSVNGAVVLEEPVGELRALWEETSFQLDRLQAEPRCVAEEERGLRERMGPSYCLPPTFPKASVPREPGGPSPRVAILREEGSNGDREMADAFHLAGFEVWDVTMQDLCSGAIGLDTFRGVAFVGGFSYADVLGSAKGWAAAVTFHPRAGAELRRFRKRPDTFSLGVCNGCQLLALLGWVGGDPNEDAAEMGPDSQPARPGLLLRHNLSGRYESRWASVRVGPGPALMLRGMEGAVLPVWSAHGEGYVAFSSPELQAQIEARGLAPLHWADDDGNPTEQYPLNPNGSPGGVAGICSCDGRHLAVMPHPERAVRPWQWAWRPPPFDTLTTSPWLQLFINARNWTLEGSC
UniProt Q9NWQ8: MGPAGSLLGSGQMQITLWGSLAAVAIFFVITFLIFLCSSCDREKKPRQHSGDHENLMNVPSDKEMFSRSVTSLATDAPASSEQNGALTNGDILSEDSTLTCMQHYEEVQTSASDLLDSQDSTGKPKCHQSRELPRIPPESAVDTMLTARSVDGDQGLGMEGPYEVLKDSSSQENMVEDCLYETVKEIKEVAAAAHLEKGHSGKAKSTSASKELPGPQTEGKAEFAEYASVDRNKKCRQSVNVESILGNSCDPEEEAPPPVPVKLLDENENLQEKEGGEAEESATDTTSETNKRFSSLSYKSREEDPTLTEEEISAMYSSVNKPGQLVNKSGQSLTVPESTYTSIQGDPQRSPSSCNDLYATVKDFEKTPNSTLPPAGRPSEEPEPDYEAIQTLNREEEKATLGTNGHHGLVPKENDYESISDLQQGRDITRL
UniProt Q15004: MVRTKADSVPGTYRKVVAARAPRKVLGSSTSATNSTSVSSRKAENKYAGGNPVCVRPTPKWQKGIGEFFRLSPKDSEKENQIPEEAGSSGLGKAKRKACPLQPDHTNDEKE
UniProt Q16875, 148-169: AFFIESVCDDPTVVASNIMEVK
UniProt Q9BUH6: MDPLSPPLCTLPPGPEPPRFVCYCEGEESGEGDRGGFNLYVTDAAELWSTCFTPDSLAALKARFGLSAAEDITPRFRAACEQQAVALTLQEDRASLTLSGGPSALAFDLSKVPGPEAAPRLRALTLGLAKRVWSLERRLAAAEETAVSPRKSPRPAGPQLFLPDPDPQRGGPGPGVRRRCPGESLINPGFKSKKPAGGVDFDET
UniProt O95453: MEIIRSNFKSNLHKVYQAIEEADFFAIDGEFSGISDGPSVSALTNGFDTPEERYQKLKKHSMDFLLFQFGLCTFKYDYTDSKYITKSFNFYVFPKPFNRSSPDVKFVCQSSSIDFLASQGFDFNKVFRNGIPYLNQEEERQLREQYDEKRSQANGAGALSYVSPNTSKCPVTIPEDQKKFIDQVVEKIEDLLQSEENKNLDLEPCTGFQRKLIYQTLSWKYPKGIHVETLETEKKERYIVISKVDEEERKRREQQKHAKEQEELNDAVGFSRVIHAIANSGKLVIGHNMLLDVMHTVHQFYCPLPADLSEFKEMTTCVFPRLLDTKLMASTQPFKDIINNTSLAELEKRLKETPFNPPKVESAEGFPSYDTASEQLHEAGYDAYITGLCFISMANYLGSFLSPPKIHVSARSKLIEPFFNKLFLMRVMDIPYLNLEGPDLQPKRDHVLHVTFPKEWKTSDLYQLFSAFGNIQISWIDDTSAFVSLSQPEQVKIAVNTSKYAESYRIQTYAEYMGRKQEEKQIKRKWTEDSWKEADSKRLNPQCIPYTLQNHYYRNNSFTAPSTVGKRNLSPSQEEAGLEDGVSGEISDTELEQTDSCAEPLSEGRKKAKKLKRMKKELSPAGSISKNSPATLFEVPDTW

[2] = compound: ClCC(=O)N[C@H]1CCCc2ccccc12; assay: as above; settings: treatment time: 4 h, cell line lysate: HEK293T
Experimental: as §1

Target	log2 mean competition ratio ([1]; 50 µM)	log2 mean competition ratio ([1]; 200 µM)	log2 mean competition ratio ([2]; 50 µM)	log2 mean competition ratio ([2]; 200 µM)
PARD6B C13 (UniProt Q9BYG5)	0.06	0.0639	0.364	-0.121
PCNA C135 (UniProt P12004)	0.279	0.258	-0.165	-0.0531
PALS1 C39	-0.131	0.069	0.104	0.0272
PARP1 C311 (UniProt P09874)	-0.123	-0.119	0.42	-0.102
PBLD C153 (UniProt P30039)	-0.426	-0.274	0.0353	-0.301
PDCD6IP C524 (UniProt Q8WUM4)	-0.504	-0.369	0.121	-0.442
PAXBP1 C870 (UniProt Q9Y5B6)	-0.171	-0.14	0.00427	-0.00275
PFAS C270 (UniProt O15067)	-0.0882	-0.00667	-0.344	0.0432
PFN1 C128	-0.109	0.471	-0.249	0.412
PAG1 C355 (UniProt Q9NWQ8)	0.182	-0.0575	-0.227	0.0997
PALS2 C298	0.0605	0.0681	0.433	0.231
PDPK1;PDPK2P C327;(C300)	0.151	-0.046	0.0538	-0.141
PCBP2 C54	-0.0372	-0.0922	-0.0287	0.0308
PCLAF C99 (UniProt Q15004)	0.298	0.125	0.216	0.165
PFKFB3 C155 (UniProt Q16875)	-0.746	0.624	-0.395	-0.0803
PAXX C180 (UniProt Q9BUH6)	0.0623	0.0987	0.0457	0.362
PARN C169 (UniProt O95453)	0.00134	-0.0465	-0.114	0.00905

Only log2 mean competition ratio ([2]; 200 µM) and log2 mean competition ratio ([1]; 50 µM) (2 entries from above):
Target | log2 mean competition ratio ([2]; 200 µM) | log2 mean competition ratio ([1]; 50 µM)
PAXBP1 C870 (UniProt Q9Y5B6) | -0.00275 | -0.171
PFAS C270 (UniProt O15067) | 0.0432 | -0.0882

Source: the supplement of paper PMC11732987, “Enantioselective OTUD7B fragment discovery through chemoproteomics screening and high-throughput optimisation” (Communications Chemistry, 2025)
